Reference: article PMC11376533
These are yes or no findings as the source states them, for the method shown.

Protein sequences, listed by entry. Tags and fused reporters are not part of them. Lines headed by an entry give the natural chain unless they say otherwise; changes in a name come on top. Chains listed by the source or under a name are the forms on record and can include a tag or linker.
Δ9N_FGF2 D28E/C78I/C96I/S137P (P09038-2, form named): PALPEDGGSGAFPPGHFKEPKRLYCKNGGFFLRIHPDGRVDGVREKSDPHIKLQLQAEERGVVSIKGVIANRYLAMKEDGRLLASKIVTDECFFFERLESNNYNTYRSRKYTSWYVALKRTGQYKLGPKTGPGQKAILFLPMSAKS
Δ9N_FGF2 D28E/C78L/C96I/S137P (P09038-2, form named): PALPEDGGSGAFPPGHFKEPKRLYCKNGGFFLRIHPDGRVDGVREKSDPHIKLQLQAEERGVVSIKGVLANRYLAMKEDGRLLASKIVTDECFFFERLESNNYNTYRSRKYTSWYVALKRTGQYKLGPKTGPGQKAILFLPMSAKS

Columns and labels:
[1] = target: Δ9N_FGF2 D28E/C78I/C96I/S137P (human) (UniProt P09038); assay: SDS-PAGE; 0.5 mg/mL protein in 1X PBS pH 7.4, incubated at 45 °C for 7 days, soluble fraction after centrifugation on 15% SDS-PAGE; self-association (oligomers through intermolecular disulfide bonds); both purified
[2] = target: Δ9N_FGF2 D28E/C78L/C96I/S137P (human) (UniProt P09038); assay: as above

Question: With “Δ9N_FGF2 D28E/C78I/C96I/S137P (from UniProt P09038-2 10-155) (ligand)” as the substance, how does the binding [1] read?
Answer: no binding (tested: 0.5 mg/mL)

Question: For “Δ9N_FGF2 D28E/C78L/C96I/S137P (from UniProt P09038-2 10-155) (ligand)”, which binding [2] is on record?
Answer: no binding (tested: 0.5 mg/mL)
